Read-outs that look alike come from different tables or passages of the source. Results are given in words; binding and its absence hold for the method and conditions named. Some entries that bind do so weakly or less than the wild type. For some assays here: Tags and fused reporters may be left off the sequences shown.
Experiments:
Test in all cases: two-hybrid
[1] = biological target: RPB-5 (yeast two-hybrid fusion) (C. elegans) (UniProt Q9N5K2)
[2] = biological target: UAD-2 (yeast two-hybrid fusion) (C. elegans)
[3] = biological target: MDT-8 (yeast two-hybrid fusion) (C. elegans) (UniProt Q9U1W2)
[4] = biological target: RPB-5 (yeast two-hybrid fusion) (C. elegans) (UniProt Q9N5K2); remark: listed apart in the source
[5] = biological target: UAD-2 (yeast two-hybrid fusion) (C. elegans); remark: listed apart in the source

Sequences of proteins named here, by UniProt entry; tags and fusion partners are left off.
UniProt Q9N5K2: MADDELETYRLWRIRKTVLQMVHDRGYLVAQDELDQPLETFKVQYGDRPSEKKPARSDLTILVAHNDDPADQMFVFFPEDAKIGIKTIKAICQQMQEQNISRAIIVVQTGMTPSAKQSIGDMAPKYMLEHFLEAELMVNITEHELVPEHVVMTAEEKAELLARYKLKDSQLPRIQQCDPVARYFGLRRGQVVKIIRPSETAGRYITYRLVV
UniProt Q9U1W2: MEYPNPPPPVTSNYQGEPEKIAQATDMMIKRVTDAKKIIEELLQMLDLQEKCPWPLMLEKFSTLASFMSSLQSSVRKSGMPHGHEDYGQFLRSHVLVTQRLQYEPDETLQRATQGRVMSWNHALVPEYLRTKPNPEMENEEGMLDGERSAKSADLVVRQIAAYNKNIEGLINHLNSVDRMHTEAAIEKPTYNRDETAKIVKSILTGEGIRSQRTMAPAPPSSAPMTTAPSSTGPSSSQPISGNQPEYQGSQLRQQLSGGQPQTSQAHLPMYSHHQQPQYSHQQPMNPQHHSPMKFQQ

| binding [1] | binding [2] | binding [3] | binding [4] | binding [5] | Molecule |
| --- | --- | --- | --- | --- | --- |
| binds | binds | – | – | – | MDT-8 (yeast two-hybrid fusion) (from UniProt Q9U1W2 1-297) |
| – | – | binds | binds | binds | TAF-12 (yeast two-hybrid fusion) (protein, UniProt Q9U226 1-342) MKMEEFSPPTSPNNHVIVQANPQIAAALSTNSPMQQGIPPQGHQNPNEQQQQQQFVGQPPMGGMGGPMRMQMPQQQIRQMPYPSPQMRAGPPPPQQQQQQHFQQMGIPQQQQPQQFTPNGQSMQMQQRPMQMGMAQGPGPSGHLMGMVGGPPPQHMMQQQGGGGPPQFVPNSSPMPLPPQQIMQVQHQQQHQQPPPSQQIQQPPIPQPQQQQAPPPQMIPAAVPYGSIMEKSKLDDLMQQISSTTVLEENVKDVLVEYADDFVSSLIDKACKMIKNREVKKIESRDIEFILKNVYNMPVVPRAASHNFGSQTEVIDLSKEKFVPTEAHKQRVALLKKQIKKL |
